Data published in paper PMC11383945.
Where two headings read alike, the source gives them in different places. These are yes or no findings as the source states them, for the method shown. In cells and extracts the contact can be indirect. A yes stands for co-enrichment or nearness to the bait. Other partners may have been found. For part of these data: A no says only that the protein was not detected with the bait. Each block holds one molecule with its values, some of them ahead of it.

The chains behind the UniProt entries cited, without tags or fusion partners. Where a name states a change or a piece, a line headed by the entry shows the natural chain unless it says otherwise. Residues count along the entry.
UniProt P35240: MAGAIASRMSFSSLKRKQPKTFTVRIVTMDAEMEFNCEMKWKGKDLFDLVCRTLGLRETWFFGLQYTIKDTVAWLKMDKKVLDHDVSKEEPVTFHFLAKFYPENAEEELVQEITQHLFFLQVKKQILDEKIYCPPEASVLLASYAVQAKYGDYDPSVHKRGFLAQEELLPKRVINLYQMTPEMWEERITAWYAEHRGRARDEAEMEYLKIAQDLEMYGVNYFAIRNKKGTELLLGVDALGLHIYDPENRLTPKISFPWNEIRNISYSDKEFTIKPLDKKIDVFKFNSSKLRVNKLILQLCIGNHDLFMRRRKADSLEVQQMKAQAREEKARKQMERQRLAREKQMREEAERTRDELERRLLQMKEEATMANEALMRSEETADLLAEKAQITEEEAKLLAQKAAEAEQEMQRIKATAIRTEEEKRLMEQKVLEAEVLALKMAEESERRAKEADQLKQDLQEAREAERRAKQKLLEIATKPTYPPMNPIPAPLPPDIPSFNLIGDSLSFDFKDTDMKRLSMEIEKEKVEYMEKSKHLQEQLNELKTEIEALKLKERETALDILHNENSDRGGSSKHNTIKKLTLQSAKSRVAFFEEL
UniProt P62136: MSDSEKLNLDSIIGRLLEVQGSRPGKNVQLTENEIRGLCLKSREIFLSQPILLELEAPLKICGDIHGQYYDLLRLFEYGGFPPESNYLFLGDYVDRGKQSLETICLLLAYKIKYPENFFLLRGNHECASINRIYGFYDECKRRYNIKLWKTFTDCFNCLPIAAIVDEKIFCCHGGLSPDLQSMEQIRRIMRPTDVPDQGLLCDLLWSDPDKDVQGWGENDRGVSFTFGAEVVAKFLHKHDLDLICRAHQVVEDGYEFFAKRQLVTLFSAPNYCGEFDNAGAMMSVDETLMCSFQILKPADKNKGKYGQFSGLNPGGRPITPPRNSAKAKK
UniProt P35222: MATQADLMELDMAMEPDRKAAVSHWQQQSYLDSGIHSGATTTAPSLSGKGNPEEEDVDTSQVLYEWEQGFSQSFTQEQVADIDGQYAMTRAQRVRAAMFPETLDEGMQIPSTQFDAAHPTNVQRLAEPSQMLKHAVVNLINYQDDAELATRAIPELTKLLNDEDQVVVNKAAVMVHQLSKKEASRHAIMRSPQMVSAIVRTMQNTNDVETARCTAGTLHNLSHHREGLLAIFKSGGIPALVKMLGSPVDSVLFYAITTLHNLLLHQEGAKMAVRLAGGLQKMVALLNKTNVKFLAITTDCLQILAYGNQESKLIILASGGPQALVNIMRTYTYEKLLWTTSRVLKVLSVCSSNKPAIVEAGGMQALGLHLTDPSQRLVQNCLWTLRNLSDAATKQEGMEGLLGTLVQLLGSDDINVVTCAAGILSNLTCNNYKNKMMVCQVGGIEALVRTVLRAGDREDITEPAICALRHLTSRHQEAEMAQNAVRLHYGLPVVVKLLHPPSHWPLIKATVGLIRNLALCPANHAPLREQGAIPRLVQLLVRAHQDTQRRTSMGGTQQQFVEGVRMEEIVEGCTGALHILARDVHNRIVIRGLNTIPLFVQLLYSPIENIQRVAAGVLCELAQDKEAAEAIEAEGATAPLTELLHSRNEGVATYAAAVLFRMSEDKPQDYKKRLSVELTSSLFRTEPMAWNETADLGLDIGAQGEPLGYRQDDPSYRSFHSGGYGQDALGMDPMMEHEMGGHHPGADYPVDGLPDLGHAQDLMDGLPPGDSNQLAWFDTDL
UniProt Q9Y2J4: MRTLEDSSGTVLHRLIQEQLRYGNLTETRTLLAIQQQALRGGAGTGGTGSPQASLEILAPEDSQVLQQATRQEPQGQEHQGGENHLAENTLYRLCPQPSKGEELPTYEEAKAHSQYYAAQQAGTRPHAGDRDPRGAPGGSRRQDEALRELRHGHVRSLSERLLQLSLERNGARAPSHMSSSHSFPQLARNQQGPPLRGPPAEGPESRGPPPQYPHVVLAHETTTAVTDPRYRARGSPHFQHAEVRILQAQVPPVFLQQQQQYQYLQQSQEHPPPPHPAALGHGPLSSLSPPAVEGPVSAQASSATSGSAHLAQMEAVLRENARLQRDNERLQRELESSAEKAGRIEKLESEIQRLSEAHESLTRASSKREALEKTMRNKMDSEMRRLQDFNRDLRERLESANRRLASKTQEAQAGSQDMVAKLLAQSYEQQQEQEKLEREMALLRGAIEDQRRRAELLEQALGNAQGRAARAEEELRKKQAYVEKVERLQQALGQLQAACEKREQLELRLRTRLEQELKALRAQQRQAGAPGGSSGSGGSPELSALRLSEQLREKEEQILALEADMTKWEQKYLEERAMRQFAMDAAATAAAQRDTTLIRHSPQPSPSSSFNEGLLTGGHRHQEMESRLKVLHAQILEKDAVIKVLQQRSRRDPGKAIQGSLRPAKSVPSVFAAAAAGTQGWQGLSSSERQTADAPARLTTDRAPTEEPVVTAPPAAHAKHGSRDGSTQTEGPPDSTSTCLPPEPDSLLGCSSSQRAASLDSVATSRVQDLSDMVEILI
UniProt Q14126, residues 50-1118: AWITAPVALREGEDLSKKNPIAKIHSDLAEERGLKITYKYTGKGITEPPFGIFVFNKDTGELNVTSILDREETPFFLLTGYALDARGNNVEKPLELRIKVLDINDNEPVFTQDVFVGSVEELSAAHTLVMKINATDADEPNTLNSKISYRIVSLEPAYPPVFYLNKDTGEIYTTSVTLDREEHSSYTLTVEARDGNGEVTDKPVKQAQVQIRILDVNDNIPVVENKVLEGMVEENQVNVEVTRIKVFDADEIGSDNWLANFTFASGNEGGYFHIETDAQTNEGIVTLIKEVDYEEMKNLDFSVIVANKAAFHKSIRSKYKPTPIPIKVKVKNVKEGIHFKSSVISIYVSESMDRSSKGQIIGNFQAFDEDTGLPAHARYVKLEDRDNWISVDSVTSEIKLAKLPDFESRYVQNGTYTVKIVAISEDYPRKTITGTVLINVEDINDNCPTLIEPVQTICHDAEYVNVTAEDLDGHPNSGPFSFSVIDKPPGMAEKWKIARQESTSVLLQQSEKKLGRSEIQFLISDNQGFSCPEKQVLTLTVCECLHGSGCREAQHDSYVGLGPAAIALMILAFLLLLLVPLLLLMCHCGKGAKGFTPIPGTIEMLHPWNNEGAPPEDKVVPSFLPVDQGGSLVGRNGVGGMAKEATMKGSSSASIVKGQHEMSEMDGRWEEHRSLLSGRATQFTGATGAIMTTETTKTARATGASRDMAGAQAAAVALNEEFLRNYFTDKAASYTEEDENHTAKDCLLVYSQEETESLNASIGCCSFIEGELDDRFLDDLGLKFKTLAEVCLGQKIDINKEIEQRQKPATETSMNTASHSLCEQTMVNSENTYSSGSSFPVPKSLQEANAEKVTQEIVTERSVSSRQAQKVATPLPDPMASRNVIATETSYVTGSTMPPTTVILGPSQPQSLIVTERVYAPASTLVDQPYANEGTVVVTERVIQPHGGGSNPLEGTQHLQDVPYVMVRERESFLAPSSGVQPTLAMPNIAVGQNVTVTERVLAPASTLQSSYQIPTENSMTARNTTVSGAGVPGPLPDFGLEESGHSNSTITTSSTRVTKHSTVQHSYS

How the values were obtained:
Experiment in all cases: proximity labelling; APEX2 fused to Merlin in M10G cells; 0.1 μg/ml doxycycline 24 h; 0.5 mM biotin-phenol 30 min at 37 °C, 1 mM H2O2 30 s on ice; streptavidin pulldown and mass spectrometry (n = 3/condition)
[1] = biological target: Merlin^WT with C-terminal FLAG and APEX2 tags (human) (UniProt P35240)
[2] = biological target: Merlin^S13D (phospho-mimetic) with FLAG and APEX2 tags (human) (UniProt P35240)
[3] = biological target: Merlin^S13A (unphosphorylatable) with FLAG and APEX2 tags (human) (UniProt P35240)
[4] = biological target: Merlin^A211D with C-terminal FLAG and APEX2 tags (human) (UniProt P35240)
[5] = biological target: Merlin^L46R with C-terminal FLAG and APEX2 tags (human) (UniProt P35240)
[6] = biological target: Merlin^WT with C-terminal FLAG and APEX2 tags (human) (UniProt P35240); remark: listed apart in the source

Molecule: PP1A (endogenous, M10G meningioma cells) (from UniProt P62136 1-330) (enzyme)
binding [1]: binds

Molecule: β-catenin (endogenous, M10G meningioma cells) (from UniProt P35222 1-781)
binding [2]: binds
binding [3]: no binding
binding [4]: binds
binding [1]: binds
binding [5]: no binding

Other lines, results leading:

binding [1]: binds
Molecule: AMOTL2 (endogenous, meningioma cells) (from UniProt Q9Y2J4 1-779)

binding [1]: binds
Molecule: DSG2 (endogenous, meningioma cells) (from UniProt Q14126 50-1118)

binding [6]: binds
B1: AMOTL1 (endogenous, meningioma cells) (protein, UniProt Q8IY63 1-956)
chain: MWRAKLRRGTCEPAVKGSPSACYSPSSPVQVLEDSTYFSPDFQLYSGRHETSALTVEATSSIREKVVEDPLCNFHSPNFLRISEVEMRGSEDAAAGTVLQRLIQEQLRYGTPTENMNLLAIQHQATGSAGPAHPTNNFSSTENLTQEDPQMVYQSARQEPQGQEHQVDNTVMEKQVRSTQPQQNNEELPTYEEAKAQSQFFRGQQQQQQQQGAVGHGYYMAGGTSQKSRTEGRPTVNRANSGQAHKDEALKELKQGHVRSLSERIMQLSLERNGAKQHLPGSGNGKGFKVGGGPSPAQPAGKVLDPRGPPPEYPFKTKQMMSPVSKTQEHGLFYGDQHPGMLHEMVKPYPAPQPVRTDVAVLRYQPPPEYGVTSRPCQLPFPSTMQQHSPMSSQTSSASGPLHSVSLPLPLPMALGAPQPPPAASPSQQLGPDAFAIVERAQQMVEILTEENRVLHQELQGYYDNADKLHKFEKELQRISEAYESLVKSTTKRESLDKAMRNKLEGEIRRLHDFNRDLRDRLETANRQLSSREYEGHEDKAAEGHYASQNKEFLKEKEKLEMELAAVRTASEDHRRHIEILDQALSNAQARVIKLEEELREKQAYVEKVEKLQQALTQLQSACEKREQMERRLRTWLERELDALRTQQKHGNGQPANMPEYNAPALLELVREKEERILALEADMTKWEQKYLEESTIRHFAMNAAATAAAERDTTIINHSRNGSYGESSLEAHIWQEEEEVVQANRRCQDMEYTIKNLHAKIIEKDAMIKVLQQRSRKDAGKTDSSSLRPARSVPSIAAATGTHSRQTSLTSSQLAEEKKEEKTWKGSIGLLLGKEHHEHASAPLLPPPPTSALSSIASTTAASSAHAKTGSKDSSTQTDKSAELFWPSMASLPSRGRLSTTPAHSPVLKHPAAKGTAEKLENSPGHGKSPDHRGRVSSLLHKPEFPDGEMMEVLI
